# Assay results reported in PubChem BioAssay AID540276 (National Center for Advancing Translational Sciences (NCATS), 2011).
# Where “and” joins values, the source holds several entries; their conditions need not be identical. Equal entries are not always repeated. Out of some 300,000 compounds screened, about 5,400 (1.8%) were called active. The inconclusive results got no clear call from the source; some entries with a clear call stand among them for comparison. Calls follow the shape of the full dose curve; tested in HEK293 cells. A potency beside an inconclusive call is a rough fit, not a confirmed value.
# Test: qHTS for inhibitors of binding or entry into cells for Marburg Virus
# Details: Marburg virus pseudotyped entry inhibition, cell reporter; activity change, negative = inhibition: at 37.8 µM (top of the series) unless noted
# % is scaled to controls: 0 for no effect and ±100 for the full control effect; potency is read from the fitted curve at half-maximal effect.
Structure (SMILES),Potency,"activity change, negative = inhibition"
CN1C(=O)/C(=C\c2ccc(N3CCCCC3)o2)C(=O)NC1=S,"inconclusive: 7.3 µM [activator, partial curve]",–
C=CCSc1ncc(C(=O)OCC)c(N)n1,inactive,–
COc1ccc(NS(=O)(=O)c2cc(NC(=O)C3CCCO3)ccc2N2CCCC2)cc1 (stereo not given),inactive,–
Cn1c(CCN2CCOCC2)nc2cc(NC(=O)COc3ccc(Cl)cc3)ccc21,"inconclusive: 0.0082 µM [inhibitor, full curve, poor fit]",–
O=C(Nc1ccc(N2CCN(C(=O)c3ccco3)CC2)cc1)c1ccc2c(c1)OCO2,"inconclusive: 10.3 µM [inhibitor, partial curve]",–
CS(=O)(=O)NCCC1=CCCCC1,inactive,–
Cc1nc(N)sc1-c1nnc(SCC(=O)Nc2nccs2)n1C,"inconclusive: 0.794 µM [activator, partial curve, poor fit]",–
Cc1noc(NC(=O)c2ccccc2)c1C#N,"inconclusive: 3.98 µM [activator, partial curve, poor fit]",–
CCN(CC(=O)Nc1cc(S(=O)(=O)N2CCCCC2)ccc1Cl)Cc1ccccc1,"inconclusive: 25.1 µM [inhibitor, single point]",–
CCCCC(=O)Nc1sc2c(c1-c1nc3ccccc3s1)CCN(C(C)=O)C2,inactive,–
Cc1c(NC(=O)[C@H](CC(=O)O)NCc2ccco2)c(=O)n(-c2ccccc2)n1C,"inconclusive: 1 µM [inhibitor, single point]",–
COc1ccccc1-n1c(SCC(=O)c2ccc(O)cc2O)nc2cc([N+](=O)[O-])ccc21,active: 2.24 µM,–
CCOc1ccccc1NC(=O)C(OC(=O)c1ccccc1O)c1ccccc1 (stereo not given),"inconclusive: 25.1 µM [inhibitor, single point]",–
CC(=O)N1c2ccc(S(=O)(=O)N3CCC(C(=O)NCc4ccc(C)cc4)CC3)cc2CC1C (stereo not given),inactive,–
O=C(Nc1ccc(CSc2ccccc2)cc1)c1ccc(CN2CCOCC2)cc1,"inconclusive: 0.517 µM [inhibitor, full curve]",–
Cn1c(-c2cc3c(C(F)(F)F)nn(C)c3s2)n[nH]c1=S,"inconclusive: 12.6 µM [inhibitor, single point]",–
O=C(O/C(=C/c1ccccc1)C(F)(F)F)c1ccccc1,"inconclusive: 14.1 µM [inhibitor, partial curve, poor fit]",–
COC(=O)c1sc2cnccc2c1N,inactive,–
CC(=O)Nc1ccc(S(=O)(=O)N2CCN(C(=O)CCC3CCCC3)CC2)cc1,"inconclusive: 0.0046 µM [inhibitor, full curve, poor fit]",–
CCCCC/C=C\C/C=C\C/C=C\C/C=C\CCCC(=O)NCC(=O)O,"inconclusive: 6.3 nM [inhibitor, full curve, poor fit] and inconclusive: 2.51 µM [inhibitor, full curve, poor fit]",–
CCOC(=O)N1CCN(C(=O)COC(=O)c2oc3ccc(OC)cc3c2C)CC1,inactive,–
O=C(COC(=O)/C=C/c1ccco1)NCc1ccc2c(c1)OCO2,inactive,–
CCOc1ccc(CC(=O)Nc2nccs2)cc1,inactive,–

# Single records, from the list above:
# COc1ccccc1-n1c(SCC(=O)c2ccc(O)cc2O)nc2cc([N+](=O)[O-])ccc21 as listed: Potency: active: 2.24 µM
# CCOc1ccc(CC(=O)Nc2nccs2)cc1 as listed: Potency: inactive

# Later entries

Structure (SMILES),Potency,"activity change, negative = inhibition"
CC(=O)c1ccc(NC(=O)COC(=O)c2ccccc2Nc2ccccc2)cc1,inactive,–
COc1cc(CN2CCC(C(=O)N3CCN(c4ccccc4F)CC3)CC2)ccc1O,"inconclusive: 29.1 µM [inhibitor, single point]",–
COc1ccc(-c2[nH]ncc2CN2CCC(OCc3ccccc3)CC2)c(F)c1,"inconclusive: 11.2 µM [inhibitor, partial curve, poor fit]",–
CSCCC(NC(=O)c1ccccc1)C(=O)OCC(=O)c1ccc[nH]1 (stereo not given),"inconclusive: 35.5 µM [activator, single point]",–
O=C(Nc1ccc(S(=O)(=O)NC2=NCCCCC2)cc1)c1ccco1,"inconclusive: 3.55 µM [inhibitor, partial curve, poor fit]",–
COc1ccc(S(=O)(=O)N2CCC(C(=O)Nc3ccc(Oc4ccccc4)cc3)CC2)cc1,inactive,–
CCN(C(=O)COC(=O)c1cc(-c2ccccc2)nn1-c1ccccc1)C1CCS(=O)(=O)C1 (stereo not given),"inconclusive: 7.08 µM [inhibitor, partial curve, poor fit]",–
Oc1ccc(Cl)cc1Cc1cc(Cl)ccc1O,"inconclusive: 29.1 µM [inhibitor, single point]",–
O=C(NNC(=S)Nc1ccc(Br)cc1)c1ccccc1,"inconclusive: 35.5 µM [activator, single point]",–
CN(c1c[nH]c(=O)[nH]c1=O)C1CCCCC1,"inconclusive: 12.6 µM [inhibitor, partial curve, poor fit]",–
CC1CC(=O)c2cnc(NCC3CCCO3)nc2C1 (stereo not given),"inconclusive: 11.2 µM [activator, single point]",–
CCN(CC)CCOc1ccc2c(c1)C(=NO)c1cc(OCCN(CC)CC)ccc1-2,active: 2.59 µM,–
Cc1cc(N2CCOCC2)ccc1/C=C\[N+](=O)[O-],"inconclusive: 8.91 µM [inhibitor, single point]",–
O=C(NNc1c(F)c(F)cc(F)c1F)c1cc2ccccc2oc1=O,inactive,–
O=C(Nc1ccc(Br)cc1)C1CCC(=O)N1Cc1ccccc1Cl (stereo not given),–,inconclusive: 37.7% [activator]
O=C(O)c1cccc(C(=O)Nc2cccc(NC(=O)C3CCCO3)c2)c1 (stereo not given),active: 11.2 µM,–
O=c1cc(CNc2cc(C(F)(F)F)cc(C(F)(F)F)c2)nc2sccn12,"inconclusive: 23.1 µM [inhibitor, single point]",–
CCOc1ccc(-n2c(CC)nc3ccccc3c2=O)cc1,inactive,–
COc1ccc(C2=NN(C(C#N)c3ccc(OC)c(OC)c3)C(c3ccccc3)C2)cc1 (stereo not given),"inconclusive: 10.3 µM [inhibitor, partial curve, poor fit]",–
CC(Sc1nnc(-c2cccs2)n1-c1ccccc1)C(=O)NCc1ccc2c(c1)OCO2 (stereo not given),inactive,–
O=C(O)c1ccc(-c2nc(-c3ccc(Cl)cc3Cl)cs2)cc1,"inconclusive: 5.01 µM [activator, full curve, poor fit]",–
Cn1ccnc1SCC(=O)c1c[nH]c2ccccc12,"inconclusive: 22.4 µM [inhibitor, partial curve, poor fit]",–
